This note sets out measurements from PubChem BioAssay AID445 (National Center for Advancing Translational Sciences (NCATS), 2006).

The term AC50 denotes the concentration giving half of the maximal activity seen.

SMILES strings stand for the structures. The list shows a part of the results. These are further read-outs of the screen, such as a control signal, another cell line or another target. No call is given for them. Most of these compounds were active or inconclusive in the main read-out, so they are no random draw. Potencies come from curve fits of mixed quality, noted in brackets.

This assay in a line: IkB Signaling. As to conditions: ABC-DLBCL IkBa-CBG/CBR dual luciferase ratio (green luciferase fused to IkBa over red control in OCI-Ly3 lymphoma cells), 4 h; measured here: control luc red channel unless noted. The procedure, abridged: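 In this assay, an IκBα–CBG68 fusion accumulates when IKK-driven degradation is blocked; native CBR normalizes for cell number. OCI-Ly3 cells were treated 4 h with compound and doxycycline, then green and red light read after Chroma-Glo addition.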
For the molecule `CCC(Sc1nc2ccccc2c(=O)n1CCc1ccc(OC)c(OC)c1)C(=O)N(CC)CC` (stereo not drawn), the half-maximal activity concentration (AC50) was 25.1 µM [falling, single point]. As for `CCOC(=O)c1cc(NC(=O)CSCCO)ccc1Cl`, the AC50 was 10 µM [falling, partial curve]. As to `c1ccc(Nc2nn[nH]n2)cc1`, the concentration at half-maximal activity (AC50) is 15.8 µM [falling, partial curve].

As for `CCOC(=O)C1CCN(C(=O)c2ccc(-n3ccc4ccccc43)s2)CC1`, the concentration at half-maximal activity (AC50) was 0.794 µM [falling, full curve]. In the case of `COc1ccc(Cn2ccn(Cc3cccc(OC)c3)c(=O)c2=O)cc1`, the AC50 is 7.94 µM [falling, partial curve]. Consider `Cc1cccc(NC(=O)N2CC(=O)Nc3sc4c(c3C2c2ccccc2)CCCC4)c1C` (stereo not drawn), for which the AC50 was 25.1 µM [falling, single point].

Take `CCOc1cc(CNC(=O)c2ccc3c(c2)NC(=O)C2CCCCN32)cc(OCC)c1OCC` (stereo not drawn): the AC50 is 20 µM [falling, partial curve, poor fit]. Consider `C[C@H](CCC(=O)O)[C@H]1CC[C@H]2[C@@H]3CC[C@@H]4C[C@H](O)CC[C@]4(C)[C@H]3CC[C@]12C`, for which the AC50 was 15.8 µM [falling, partial curve].

For `O=C1OC(NC(=O)c2ccccc2)C(n2cc(CO)nn2)=C1Cl` (stereo not drawn), the AC50 is 20 µM [rising, partial curve] [measured here: IkB-luc green channel]. The result for `CC(=O)c1cccc(NC(=O)C2CCN(S(=O)(=O)c3ccc4c(c3)oc(=O)n4C)CC2)c1` reads 31.6 µM [falling, partial curve]. The result for `O=C(CSCc1ccccc1Cl)N1CCN(c2ccc(Cl)cc2)CC1` reads 39.8 µM [falling, single point]. For the molecule `COc1cc(C2CC(=O)Oc3c2c(=O)n(C)c2ccccc32)ccc1O` (stereo not drawn), the AC50 is 20 µM [falling, single point]. The result for `c1ccc(-c2noc(-c3cccc4ccccc34)n2)cc1` reads 39.8 µM [falling, single point]; that for `O=C(COc1ccccc1)Nc1ccc2nc(SCCOc3ccccc3)sc2c1`, 1 µM [falling, partial curve]; that for `CCc1ccccc1NC(=O)c1cnc(N2CCCCC2)c2ccccc12`, 39.8 µM [falling, single point]. Take `COc1cc(C(=O)NCC(c2cccs2)S(=O)(=O)c2cccs2)cc(OC)c1OC` (stereo not drawn): the AC50 was 39.8 µM [falling, single point].

With `COc1ccc(-c2c3c(=O)n(C)c(=O)n(C)c3c3n2-c2ccccc2NC3c2ccco2)cc1` (stereo not drawn), the half-maximal activity concentration (AC50) was 15.8 µM [falling, partial curve]. Turning to `CCN1C(=O)c2ccccc2S(=O)c2ccc(C(=O)N3CCN(c4cc(Cl)ccc4C)CC3)cc21` (stereo not drawn), the AC50 was 10 µM [falling, partial curve]. Turning to `Cc1ccccc1CN1CCC(CNC(=O)c2c(C)oc3ncnc(N4CCCCC4)c23)CC1`, the concentration at half-maximal activity (AC50) is 0.251 µM [rising, partial curve]. `CCC(Sc1nc(-c2ccccc2F)nc2c1Cc1c(CO)cnc(C)c1O2)C(=O)Nc1cc(C)ccc1C` (stereo not drawn): the AC50 was 1 µM [rising, full curve]. Regarding `CCOc1ccc(CCNC(=O)C2=C(C)C(=O)OC23CCCCC3)cc1`, the half-maximal activity concentration (AC50) was 20 µM [falling, partial curve].

Regarding `CN(Cc1ccccc1)C(=O)c1ccc2c(c1)N(Cc1ccccc1Cl)C(=O)c1ccccc1S2`, the concentration at half-maximal activity (AC50) was 10 µM [falling, partial curve]. Consider `COc1nnc(-c2ccc(N3CCCCC3)c(N)c2)c2ccccc12`, for which the AC50 was 20 µM [falling, partial curve]. For `CCOc1ccccc1C1C(C(=O)N2CCCCC2)=C(C)Nc2nc3ccccc3n21` (stereo not drawn), the AC50 was 25.1 µM [falling, partial curve]. As to `CC(=O)c1cccc(-n2nnnc2SCC(=O)Nc2cccc(NC(=O)c3ccco3)c2)c1`, the AC50 was 15.8 µM [falling, partial curve]. For `O=C(CSc1nc2ccccc2c(=O)n1Cc1ccco1)c1ccccc1`, the AC50 is 12.6 µM [falling, partial curve].

For `O=C(NCC1CCN(Cc2cccc(Cl)c2)CC1)Nc1cc(Cl)ccc1Cl`, the AC50 was 15.8 µM [falling, partial curve]. As for `COc1ccc(N(C)C(=O)CCn2cnc3onc(-c4ccc(F)cc4)c3c2=O)c(OC)c1`, the figure is 10 µM [falling, partial curve]. As to `CCCCCS(=O)(=O)c1oc(-c2cccs2)nc1S(=O)(=O)c1ccc(C)cc1`, the AC50 is 12.6 µM [falling, partial curve]. In the case of `Cc1cccnc1NCc1ccc(O)c2ncccc12`, the half-maximal activity concentration (AC50) is 5.01 µM [rising, partial curve] [measured here: IkB-luc green channel]. Consider `CCCCN(CCCC)C(=O)c1cc2c(=O)n3cccc(C)c3nc2s1`, for which the concentration at half-maximal activity (AC50) is 39.8 µM [falling, single point]. As for `COc1ccc(S(=O)(=O)Nc2ccc(C(F)(F)F)cc2)cc1OC`, the figure is 39.8 µM [falling, single point]; as for `COc1ccc(C2CC(=O)N(CC(=O)Nc3cc(C)ccc3C)c3ccccc3S2)cc1` (stereo not drawn), 31.6 µM [falling, single point]; as for `Brc1ccc2ncnc(NCc3ccco3)c2c1`, 1.58 µM [falling, full curve, poor fit]. On to `Cc1cccc(OCC(=O)N(Cc2cccs2)c2ccc(Cl)cc2)c1C`, for which the AC50 is 5.01 µM [falling, partial curve].

`O=C(Cn1c(C(=O)NCc2ccco2)cc2sccc21)c1ccccc1`: the concentration at half-maximal activity (AC50) is 31.6 µM [falling, partial curve]. For `O=C1c2oc3ccccc3c(=O)c2C(c2ccccc2)N1Cc1ccc2c(c1)OCO2` (stereo not drawn), the AC50 was 39.8 µM [rising, partial curve, poor fit]. `CN1C(=O)c2ccccc2Sc2ccc(NC(=O)c3ccccc3F)cc21`: the half-maximal activity concentration (AC50) was 31.6 µM [falling, single point]. `CCOC(=O)c1cccc(NC(=O)[C@@H](c2ccccc2)N2Cc3ccccc3C2=O)c1`: the AC50 is 31.6 µM [falling, single point].

With `CCN1C(=O)c2ccccc2Sc2ccc(C(=O)NCCCN(CC(C)C)CC(C)C)cc21`, the AC50 was 39.8 µM [falling, partial curve].

Regarding `O=S(=O)(Nc1nc2ccccc2nc1Nc1ccc2c(c1)OCCO2)c1cccs1`, the AC50 is 3.16 µM [falling, partial curve].

Consider `COc1cccc(CNC(=O)c2cc3c(s2)-c2ccccc2OC3)c1`, for which the AC50 was 7.94 µM [falling, partial curve]. As to `COc1ccc(-n2c(=O)c3c4c(sc3n(Cc3ccc(F)cc3)c2=O)CCCC4)c(OC)c1`, the concentration at half-maximal activity (AC50) was 10 µM [falling, partial curve].

As to `COc1ccccc1NC(=O)C1=C(C)Nc2ncnn2C1c1ccccc1C(=O)O` (stereo not drawn), the half-maximal activity concentration (AC50) was 25.1 µM [falling, single point]. Consider `CC(C)COC(=O)N(C)c1ccc(C(O)(C(F)(F)F)C(F)(F)F)cc1`, for which the concentration at half-maximal activity (AC50) is 25.1 µM [falling, single point]. On to `Cc1ccc(OCC(=O)Nc2nnc(SCc3cc(=O)c4ccccc4[nH]3)s2)cc1`, for which the AC50 is 25.1 µM [falling, partial curve]. Regarding `Cc1ccc(CNC(=O)c2ccc(Cn3nc(C)c(Cl)c3C)o2)cc1`, the AC50 was 12.6 µM [falling, partial curve]. In the case of `CCOc1ccccc1C(=O)Nc1ccc2nc(N(CC)CC)cc(C)c2c1`, the AC50 is 7.94 µM [falling, single point]. For the molecule `CC(CCc1ccccc1)NC(=O)C1CCCN(C(=O)c2cc3sccc3n2C)C1` (stereo not drawn), the half-maximal activity concentration (AC50) was 12.6 µM [falling, partial curve].

Take `Cc1cc(N2CCCCC2)nc2ccc(NC(=O)c3cccc(Cl)c3)cc12`: the half-maximal activity concentration (AC50) is 31.6 µM [falling, single point]. `CCOC(=O)C1CCN(c2ncnc3c2oc2ccccc23)CC1`: the concentration at half-maximal activity (AC50) was 25.1 µM [falling, single point]. In the case of `Cc1cc2n(n1)C(c1cc(C(C)(C)C)c(O)cc1O)Nc1ccccc1-2` (stereo not drawn), the AC50 was 31.6 µM [falling, single point]. As to `CSc1cccc(NC(=O)CN2C(=O)COc3ccc(Cl)cc32)c1`, the AC50 is 31.6 µM [falling, partial curve].

Turning to `Cc1ccc(-c2nc3sc(CCNC(=O)c4ccc(Br)o4)c(C)n3n2)cc1`, the AC50 is 25.1 µM [falling, partial curve].

In the case of `COc1ccc(NC(=O)COc2ccc(-c3nn(C)c(=O)c4ccccc34)cc2)cc1`, the concentration at half-maximal activity (AC50) is 0.794 µM [rising, full curve]. `COc1ccccc1-c1nnc(SCC(=O)c2ccc(Cl)cc2)n1-c1ccccc1`: the AC50 was 10 µM [falling, partial curve]. As for `CCCCc1ccc(NC(=O)c2cc3c(=O)n4ccccc4nc3s2)cc1`, the AC50 is 25.1 µM [rising, partial curve, poor fit]. `Cc1c(C)c2ccc(OCc3ccc(C(=O)O)o3)c(C)c2oc1=O`: the AC50 was 1.26 µM [falling, full curve]. Regarding `CCOc1ccc(NC(=O)CSc2nc3c(oc4ccccc43)c(=O)n2-c2ccccc2C)cc1`, the AC50 is 31.6 µM [falling, single point]. As for `COC(=O)c1ccc2c(=O)[nH]c(CN3c4ccccc4CC3C)nc2c1` (stereo not drawn), the AC50 is 25.1 µM [falling, single point]. Turning to `CCn1ccc2cc(S(=O)(=O)N3CCCN(C(=O)Nc4cccc(Cl)c4)CC3)ccc21`, the half-maximal activity concentration (AC50) is 39.8 µM [rising, single point].

Take `COc1ccc(N(C)C(=O)c2cn(C3CCCCC3)c(=O)c3c2c2ccccc2n3C)cc1`: the AC50 was 15.8 µM [falling, partial curve]. On to `O=C(NCCc1csc2nc(-c3ccccc3F)nn12)c1ccco1`, for which the half-maximal activity concentration (AC50) was 5.01 µM [falling, single point].
